According to publication PMC11408250:
No constants are given. Whether binding was seen depends on the method and setting. In cells and extracts the contact can be indirect. These calls come from enrichment with a bait or labelling near it, and not all partners need be listed. Sequences can lack the tags named with a protein.

T1: PCDH19-HA-FLAG (Protocadherin 19, endogenous in Pcdh19-HA-FLAG mice) (mouse (endogenous in mouse brain)) (UniProt Q80TF3)
T1 sequence: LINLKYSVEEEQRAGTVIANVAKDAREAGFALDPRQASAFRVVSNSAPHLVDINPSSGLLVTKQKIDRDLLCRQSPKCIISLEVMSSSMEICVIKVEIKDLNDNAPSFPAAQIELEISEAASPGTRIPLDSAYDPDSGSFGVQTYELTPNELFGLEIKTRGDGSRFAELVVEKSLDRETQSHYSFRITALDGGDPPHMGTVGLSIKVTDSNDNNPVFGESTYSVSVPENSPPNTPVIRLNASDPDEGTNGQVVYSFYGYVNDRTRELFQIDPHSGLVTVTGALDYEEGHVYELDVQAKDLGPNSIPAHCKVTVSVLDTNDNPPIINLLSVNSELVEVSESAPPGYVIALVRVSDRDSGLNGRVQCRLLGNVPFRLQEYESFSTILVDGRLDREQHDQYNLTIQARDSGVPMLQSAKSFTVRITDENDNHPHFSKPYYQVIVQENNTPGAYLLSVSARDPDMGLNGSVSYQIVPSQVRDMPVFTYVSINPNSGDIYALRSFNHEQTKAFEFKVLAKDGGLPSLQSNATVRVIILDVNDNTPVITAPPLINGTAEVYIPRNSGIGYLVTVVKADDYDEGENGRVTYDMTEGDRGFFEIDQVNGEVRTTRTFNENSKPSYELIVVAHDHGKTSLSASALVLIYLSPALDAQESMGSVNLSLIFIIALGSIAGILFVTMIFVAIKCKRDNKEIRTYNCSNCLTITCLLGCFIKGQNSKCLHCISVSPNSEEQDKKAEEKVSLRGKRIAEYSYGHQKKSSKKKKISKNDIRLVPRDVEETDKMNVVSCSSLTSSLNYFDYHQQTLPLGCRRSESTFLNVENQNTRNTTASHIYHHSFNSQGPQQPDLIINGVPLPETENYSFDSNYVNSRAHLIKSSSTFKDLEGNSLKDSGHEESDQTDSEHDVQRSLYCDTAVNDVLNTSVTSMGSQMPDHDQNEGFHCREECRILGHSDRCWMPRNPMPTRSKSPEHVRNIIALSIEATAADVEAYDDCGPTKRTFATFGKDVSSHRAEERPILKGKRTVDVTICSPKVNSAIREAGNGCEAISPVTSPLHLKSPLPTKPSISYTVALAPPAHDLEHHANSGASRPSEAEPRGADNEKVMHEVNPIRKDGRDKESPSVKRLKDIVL


Molecular target: T1, PCDH19-HA-FLAG (Protocadherin 19, endogenous in Pcdh19-HA-FLAG mice) (mouse (endogenous in mouse brain))
Test: affinity purification with mass spectrometry; Experiment 2, postnatal: PCDH19-HA-FLAG precipitated with anti-FLAG M2 affinity gel from P6-7 mouse cortex and hippocampus lysate, control mouse IgG affinity gel; IP Buffer, overnight 4 °C; LC-MS/MS

binding	Binder
binds	Catenin Alpha 2 (mouse, endogenous) (protein, UniProt Q61301 1-953) MTSATSPIILKWDPKSLEIRTLTVERLLEPLVTQVTTLVNTSNKGPSGKKKGRSKKAHVLAASVEQATQNFLEKGEQIAKESQDLKEELVAAVEDVRKQGETMRIASSEFADDPCSSVKRGTMVRAARALLSAVTRLLILADMADVMRLLSHLKIVEEALEAVKNATNEQDLANRFKEFGKEMVKLNYVAARRQQELKDPHCRDEMAAARGALKKNATMLYTASQAFLRHPDVAATRANRDYVFKQVQEAIAGISSAAQATSPTDEAKGHTGIGELAAALNEFDNKIILDPMTFSEARFRPSLEERLESIISGAALMADSSCTRDDRRERIVAECNAVRQALQDLLSEYMNNTGRKEKGDPLNIAIDKMTKKTRDLRRQLRKAVMDHISDSFLETNVPLLVLIEAAKSGNEKEVKEYAQVFREHANKLVEVANLACSISNNEEGVKLVRMAATQIDSLCPQVINAALTLAARPQSKVAQDNMDVFKDQWEKQVRVLTEAVDDITSVDDFLSVSENHILEDVNKCVIALQEGDVDTLDRTAGAIRGRAARVIHIINAEMENYEAGVYTEKVLEATKLLSETVMPRFAEQVEVAIEALSANVPQPFEENEFIDASRLVYDGVRDIRKAVLMIRTPEELEDDSDFEQEDYDVRSRTSVQTEDDQLIAGQSARAIMAQLPQEEKAKIAEQVEIFHQEKSKLDAEVAKWDDSGNDIIVLAKQMCMIMMEMTDFTRGKGPLKNTSDVINAAKKIAEAGSRMDKLARAVADQCPDSACKQDLLAYLQRIALYCHQLNICSKVKAEVQNLGGELIVSGTGVQSTFTTFYEVDCDVIDGGRASQLSTHLPTCAEGAPIGSGSSDSSMLDSATSLIQAAKNLMNAVVLTVKASYVASTKYQKVYGTAAVNSPVVSWKMKAPEKKPLVKREKPEEFQTRVRRGSQKKHISPVQALSEFKAMDSF
binds	Actin Binding LIM Protein 1 (protein, UniProt Q8K4G5 1-861) MPSLLGLKCLGKLCSSEIGKVPSPERASLRNSHRRLLIEDLSVPETPDPAHRRRGTVIHLVYLYSAGCGPPELRFSSYDPSVAHPQDPHHSSEKPVIHCHKCGEPCKGEVLRVQTKHFHIKCFTCKVCGCDLAQGGFFIKNGDYLCTLDYQRMYGTRCHGCGEFVEGEVVTALGKTYHPNCFACTICKRPFPPGDRVTFNGRDCLCQLCAQPMSSSPKEASCSSNCAGCGRDIKNGQALLALDKQWHLGCFKCKSCGKVLTGEYISKDGSPYCEKDYQGLFGVKCEACHQFITGKVLEAGDKHYHPSCARCSRCNQMFTEGEEMYLQGSTVWHPDCKQSTKTEEKLRPPNIPRSSSDFFYPKSLIRRTGRSPALQLLSPPCLTNSNKNPRQPTRTSSESIYSRPGSSIPGSPGHTIYAKVDNEILDYKDLAAIPKVKAIYDIERPDLITYEPFYTSGYEDKQERQSLGESPRTLSPTPSAEGYQDVRDRMIHRSTSQGSINSPVYSRHSYTPTTSRSPQHFHRPELLSPGVHRWSPLRTSSFSSTHSDSRPNPPFRHHFLPHVKGNEPSSGRNSPLPYRPDSRPLTPTYAQAPKHFHVPDQGINIYRKPPIYKQHAALAAQSKASEDIIKFSKFPAAQAPDPNEIPKIETDHWPGPPSLAAVGTDPRRRSSGREEDEEELLRRRQLQEEQLMKLNSGLGQLILKEEMEKESRERASLASRYDSPLHSASHAPSSKTSSLPGYGKNGLHRPVSTDFAQYNSYGDISGGVRDYQTLPDGHMPAVRMDRGVSMPNMLEPKIFPYEMLMVTNRGRNKILRDVDRTRLERHLAPEVFWEIFGMSIQEFDKLPLWRRNDMKKKAKLF
binds	Catenin Delta 2 (protein, UniProt O35927 1-1247) MFARKQSGAAPFGAMPVPDQPPSASEKNSSLSPGLNTSNGDGSETETTSAILASVKEQELQFERLTRELEAERQIVASQLERCKLGSETGSMSSISSAGEQFHWQTQDGQKDIEDELTTGLELVDSCIRSLQESGILDPQDYSTSERPSLLSQSALQLNSKPEGSFQYPASYHSNQTLALGDTAPSQLPARSTQARAAGQSFSQGTTGRAGHLAGSEPAPPPPPPREPFAPSLGSAFHLPDAPPAAAALYYSSSTLPAPPRGGSPLTTTQGGSPTKLQRGGSAPEGAAYAAPRGSSPKQSPSRLAKSYSTSSPINIVVSSAGLSPIRVTSPPTVQSTISSSPIHQLSSTIGTYATLSPTKRLVHASEQYSKHSQELYATATLQRPGSLAAGSRASYSSQHGHLAPELRALQSPEHHIDPIYEDRVYQKPPMRSLSQSQGDPLPPAHTGTFRTSTAPSSPGVDSVPLQRTGSQHGPQNAAAATFQRASYAAGPASNYADPYRQLQYCASVDSPYSKSGPALPPEGTLARSPSIDSIQKDPREFGWRDPELPEVIQMLQHQFPSVQSNAAAYLQHLCFGDNKIKAEIRRQGGIQLLVDLLDHRMTEVHRSACGALRNLVYGKANDDNKIALKNCGGIPALVRLLRKTTDLEIRELVTGVLWNLSSCDALKMPIIQDALAVLTNAVIIPHSGWENSPLQDDRKIQLHSSQVLRNATGCLRNVSSAGEEARRRMRECDGLTDALLYVIQSALGSSEIDSKTVENCVCILRNLSYRLAAETSQGQHMGTDELDGLLCGETNGKDTESSGCWGKKKKKKKSQDQWDGVGPLPDCAEPPKGIQMLWHPSIVKPYLTLLSECSNPDTLEGAAGALQNLAAGSWKGWAEDVAGMAYALRSLPEGAPCLPQWSVYIRAAVRKEKGLPILVELLRIDNDRVVCAVATALRNMALDVRNKELIGKYAMRDLVHRLPGGNNSNNSGSKAMSDDTVTAVCCTLHEVITKNMENAKALRDAGGIEKLVGISKSKGDKHSPKVVKAASQVLNSMWQYRDLRSLYKKDGWSQYHFVASSSTIERDRQRPYSSSRTPSISPVRVSPNNRSASAPASPREMISLKERKTDYESAGNNATYHGTKGEHTSRKDTMTAQNTGVSTLYRNSYGAPAEDIKQNQVSTQPVPQEPSRKDYETYQPFPNSTRNYDESFFEDQVHHRPPASEYTMHLGLKSTGNYVDFYSAARPYSELNYETSHYPASPDSWV
binds	Histone deacetylase 6 (protein, UniProt Q9Z2V5 1-1149) MTSTGQDSSTRQRKSRHNPQSPLQESSATLKRGGKKCAVPHSSPNLAEVKKKGKMKKLSQPAEEDLVVGLQGLDLNPETRVPVGTGLVFDEQLNDFHCLWDDSFPESPERLHAIREQLILEGLLGRCVSFQARFAEKEELMLVHSLEYIDLMETTQYMNEGELRVLAETYDSVYLHPNSYSCACLATGSVLRLVDALMGAEIRNGMAVIRPPGHHAQHNLMDGYCMFNHLAVAARYAQKKHRIQRVLIVDWDVHHGQGTQFIFDQDPSVLYFSIHRYEHGRFWPHLKASNWSTIGFGQGQGYTINVPWNQTGMRDADYIAAFLHILLPVASEFQPQLVLVAAGFDALHGDPKGEMAATPAGFAHLTHLLMGLAGGKLILSLEGGYNLRALAKGVSASLHTLLGDPCPMLESCVVPCASAQTSIYCTLEALEPFWEVLERSVETQEEDEVEEAVLEEEEEEGGWEATALPMDTWPLLQNRTGLVYDEKMMSHCNLWDNHHPETPQRILRIMCHLEEVGLAARCLILPARPALDSELLTCHSAEYVEHLRTTEKMKTRDLHREGANFDSIYICPSTFACAKLATGAACRLVEAVLSGEVLNGIAVVRPPGHHAEPNAACGFCFFNSVAVAARHAQIIAGRALRILIVDWDVHHGNGTQHIFEDDPSVLYVSLHRYDRGTFFPMGDEGASSQVGRDAGIGFTVNVPWNGPRMGDADYLAAWHRLVLPIAYEFNPELVLISAGFDAAQGDPLGGCQVTPEGYAHLTHLLMGLAGGRIILILEGGYNLASISESMAACTHSLLGDPPPQLTLLRPPQSGALVSISEVIQVHRKYWRSLRLMKMEDKEECSSSRLVIKKLPPTASPVSAKEMTTPKGKVPEESVRKTIAALPGKESTLGQAKSKMAKAVLAQGQSSEQAAKGTTLDLATSKETVGGATTDLWASAAAPENFPNQTTSVEALGETEPTPPASHTNKQTTGASPLQGVTAQQSLQLGVLSTLELSREAEEAHDSEEGLLGEAAGGQDMNSLMLTQGFGDFNTQDVFYAVTPLSWCPHLMAVCPIPAAGLDVSQPCKTCGTVQENWVCLTCYQVYCSRYVNAHMVCHHEASEHPLVLSCVDLSTWCYVCQAYVHHEDLQDVKNAAHQNKFGEDMPHSH
